PubChem BioAssay AID1259254 | NCATS, 2017
Screen: 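Finding genes that stop cells copying their DNA twice in one cycle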 (primary screen). Cell system: human HCT116 colorectal cancer cells. Knock-down reagent: single siRNA against human genes. Timing: 3 days. Measured: 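Imaged Hoechst DNA stain sorts each cell into a cycle phase by DNA amount; per plate, G2 fraction set to 0% for non-targeting and 100% for GMNN siRNA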. Reading the numbers: G2 robust z-score: higher = more G2 cells, more excess DNA replication. Hit rule: 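Active siRNAs have a G2 robust z of 5 or more median absolute deviations over the median, which in these data means about 38% or higher of GMNN control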.
The deposit covers about 59,000 reagents; below is a random part of them. In the full data, about 1,550 (2.6%) got an active call. 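G2 share is only a proxy for re-replication; each gene was hit by three separate siRNAs, and active genes were retested.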 A number with no mark means an inactive call. The numbers tell different reagents against one gene apart. Not all columns of the deposit are shown. No sequences are given here. The record does not give: the amount of reagent.

IGFL3 #1 | G2 robust z-score: 0.00815
IGFL3 #2 | G2 robust z-score: 2.38
IGFL3 #3 | G2 robust z-score: -0.774
SPATA31D5P #1 | G2 robust z-score: -0.251
SPATA31D5P #2 | G2 robust z-score: -0.529
SPATA31D5P #3 | G2 robust z-score: -0.66
LRRC55 #1 | G2 robust z-score: -1.49
LRRC55 #2 | G2 robust z-score: -0.0307
LRRC55 #3 | G2 robust z-score: -0.376
GRINA #1 | G2 robust z-score: 0.976
GRINA #2 | G2 robust z-score: 2.72
GRINA #3 | G2 robust z-score: -0.322
CYCS #1 | G2 robust z-score: 0.0741
CYCS #2 | G2 robust z-score: 3.62
CYCS #3 | G2 robust z-score: -0.844
NPRL3 #1 | G2 robust z-score: 1.28
NPRL3 #2 | G2 robust z-score: -0.338
NPRL3 #3 | G2 robust z-score: -0.176
PPP6C #1 | G2 robust z-score: -0.241
PPP6C #2 | G2 robust z-score: -0.407
PPP6C #3 | G2 robust z-score: 5.35 (active)
FAM222B #1 | G2 robust z-score: 0.0289
FAM222B #2 | G2 robust z-score: 1.22
FAM222B #3 | G2 robust z-score: -0.836
MAK16 #1 | G2 robust z-score: 2.06
MAK16 #2 | G2 robust z-score: 12.7 (active)
MAK16 #3 | G2 robust z-score: 1.03
LOC400099 (retired record) #1 | G2 robust z-score: -0.652
LOC400099 (retired record) #2 | G2 robust z-score: -0.583
LOC400099 (retired record) #3 | G2 robust z-score: 0.371
